The other results are listed elsewhere or left out. The data scatter; read single values as rough.

Chains of the proteins cited; added tags and fusions are not shown. Lines headed by an entry give the natural chain unless they say otherwise; changes in a name come on top. Residues count along the entry.
UniProt O00186: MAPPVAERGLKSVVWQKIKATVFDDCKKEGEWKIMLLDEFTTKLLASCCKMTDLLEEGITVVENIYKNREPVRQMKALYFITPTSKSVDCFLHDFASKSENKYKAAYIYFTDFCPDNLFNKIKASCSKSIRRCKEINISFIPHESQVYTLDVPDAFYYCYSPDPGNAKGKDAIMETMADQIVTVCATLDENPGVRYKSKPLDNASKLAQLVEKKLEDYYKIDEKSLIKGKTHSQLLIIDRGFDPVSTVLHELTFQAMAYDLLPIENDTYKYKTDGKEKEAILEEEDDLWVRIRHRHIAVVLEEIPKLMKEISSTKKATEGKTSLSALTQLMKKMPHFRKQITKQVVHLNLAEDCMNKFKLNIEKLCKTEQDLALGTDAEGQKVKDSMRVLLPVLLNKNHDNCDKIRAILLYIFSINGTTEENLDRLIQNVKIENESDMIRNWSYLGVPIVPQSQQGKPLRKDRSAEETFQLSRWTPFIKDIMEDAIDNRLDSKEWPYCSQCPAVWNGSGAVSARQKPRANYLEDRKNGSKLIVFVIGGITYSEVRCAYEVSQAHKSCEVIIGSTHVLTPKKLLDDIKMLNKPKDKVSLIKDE
UniProt Q9Y274: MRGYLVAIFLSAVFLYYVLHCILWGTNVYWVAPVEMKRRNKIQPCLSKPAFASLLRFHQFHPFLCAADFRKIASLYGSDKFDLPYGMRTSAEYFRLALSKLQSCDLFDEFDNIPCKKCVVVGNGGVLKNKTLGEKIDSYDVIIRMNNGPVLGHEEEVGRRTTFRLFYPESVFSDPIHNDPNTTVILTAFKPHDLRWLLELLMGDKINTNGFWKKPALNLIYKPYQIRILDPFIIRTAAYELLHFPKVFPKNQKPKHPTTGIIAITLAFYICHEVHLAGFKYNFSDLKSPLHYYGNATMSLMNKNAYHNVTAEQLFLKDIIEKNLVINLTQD
UniProt O43815, 650-669: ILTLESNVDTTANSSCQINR
UniProt Q8NBJ7: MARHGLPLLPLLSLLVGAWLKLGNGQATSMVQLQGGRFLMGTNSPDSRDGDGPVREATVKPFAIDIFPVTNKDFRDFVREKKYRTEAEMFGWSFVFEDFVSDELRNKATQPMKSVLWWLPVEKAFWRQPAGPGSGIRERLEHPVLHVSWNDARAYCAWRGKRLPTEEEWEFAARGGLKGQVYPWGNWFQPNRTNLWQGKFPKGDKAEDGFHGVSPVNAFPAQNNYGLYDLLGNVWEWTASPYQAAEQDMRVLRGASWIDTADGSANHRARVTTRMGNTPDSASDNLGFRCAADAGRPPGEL
UniProt Q9UQ35: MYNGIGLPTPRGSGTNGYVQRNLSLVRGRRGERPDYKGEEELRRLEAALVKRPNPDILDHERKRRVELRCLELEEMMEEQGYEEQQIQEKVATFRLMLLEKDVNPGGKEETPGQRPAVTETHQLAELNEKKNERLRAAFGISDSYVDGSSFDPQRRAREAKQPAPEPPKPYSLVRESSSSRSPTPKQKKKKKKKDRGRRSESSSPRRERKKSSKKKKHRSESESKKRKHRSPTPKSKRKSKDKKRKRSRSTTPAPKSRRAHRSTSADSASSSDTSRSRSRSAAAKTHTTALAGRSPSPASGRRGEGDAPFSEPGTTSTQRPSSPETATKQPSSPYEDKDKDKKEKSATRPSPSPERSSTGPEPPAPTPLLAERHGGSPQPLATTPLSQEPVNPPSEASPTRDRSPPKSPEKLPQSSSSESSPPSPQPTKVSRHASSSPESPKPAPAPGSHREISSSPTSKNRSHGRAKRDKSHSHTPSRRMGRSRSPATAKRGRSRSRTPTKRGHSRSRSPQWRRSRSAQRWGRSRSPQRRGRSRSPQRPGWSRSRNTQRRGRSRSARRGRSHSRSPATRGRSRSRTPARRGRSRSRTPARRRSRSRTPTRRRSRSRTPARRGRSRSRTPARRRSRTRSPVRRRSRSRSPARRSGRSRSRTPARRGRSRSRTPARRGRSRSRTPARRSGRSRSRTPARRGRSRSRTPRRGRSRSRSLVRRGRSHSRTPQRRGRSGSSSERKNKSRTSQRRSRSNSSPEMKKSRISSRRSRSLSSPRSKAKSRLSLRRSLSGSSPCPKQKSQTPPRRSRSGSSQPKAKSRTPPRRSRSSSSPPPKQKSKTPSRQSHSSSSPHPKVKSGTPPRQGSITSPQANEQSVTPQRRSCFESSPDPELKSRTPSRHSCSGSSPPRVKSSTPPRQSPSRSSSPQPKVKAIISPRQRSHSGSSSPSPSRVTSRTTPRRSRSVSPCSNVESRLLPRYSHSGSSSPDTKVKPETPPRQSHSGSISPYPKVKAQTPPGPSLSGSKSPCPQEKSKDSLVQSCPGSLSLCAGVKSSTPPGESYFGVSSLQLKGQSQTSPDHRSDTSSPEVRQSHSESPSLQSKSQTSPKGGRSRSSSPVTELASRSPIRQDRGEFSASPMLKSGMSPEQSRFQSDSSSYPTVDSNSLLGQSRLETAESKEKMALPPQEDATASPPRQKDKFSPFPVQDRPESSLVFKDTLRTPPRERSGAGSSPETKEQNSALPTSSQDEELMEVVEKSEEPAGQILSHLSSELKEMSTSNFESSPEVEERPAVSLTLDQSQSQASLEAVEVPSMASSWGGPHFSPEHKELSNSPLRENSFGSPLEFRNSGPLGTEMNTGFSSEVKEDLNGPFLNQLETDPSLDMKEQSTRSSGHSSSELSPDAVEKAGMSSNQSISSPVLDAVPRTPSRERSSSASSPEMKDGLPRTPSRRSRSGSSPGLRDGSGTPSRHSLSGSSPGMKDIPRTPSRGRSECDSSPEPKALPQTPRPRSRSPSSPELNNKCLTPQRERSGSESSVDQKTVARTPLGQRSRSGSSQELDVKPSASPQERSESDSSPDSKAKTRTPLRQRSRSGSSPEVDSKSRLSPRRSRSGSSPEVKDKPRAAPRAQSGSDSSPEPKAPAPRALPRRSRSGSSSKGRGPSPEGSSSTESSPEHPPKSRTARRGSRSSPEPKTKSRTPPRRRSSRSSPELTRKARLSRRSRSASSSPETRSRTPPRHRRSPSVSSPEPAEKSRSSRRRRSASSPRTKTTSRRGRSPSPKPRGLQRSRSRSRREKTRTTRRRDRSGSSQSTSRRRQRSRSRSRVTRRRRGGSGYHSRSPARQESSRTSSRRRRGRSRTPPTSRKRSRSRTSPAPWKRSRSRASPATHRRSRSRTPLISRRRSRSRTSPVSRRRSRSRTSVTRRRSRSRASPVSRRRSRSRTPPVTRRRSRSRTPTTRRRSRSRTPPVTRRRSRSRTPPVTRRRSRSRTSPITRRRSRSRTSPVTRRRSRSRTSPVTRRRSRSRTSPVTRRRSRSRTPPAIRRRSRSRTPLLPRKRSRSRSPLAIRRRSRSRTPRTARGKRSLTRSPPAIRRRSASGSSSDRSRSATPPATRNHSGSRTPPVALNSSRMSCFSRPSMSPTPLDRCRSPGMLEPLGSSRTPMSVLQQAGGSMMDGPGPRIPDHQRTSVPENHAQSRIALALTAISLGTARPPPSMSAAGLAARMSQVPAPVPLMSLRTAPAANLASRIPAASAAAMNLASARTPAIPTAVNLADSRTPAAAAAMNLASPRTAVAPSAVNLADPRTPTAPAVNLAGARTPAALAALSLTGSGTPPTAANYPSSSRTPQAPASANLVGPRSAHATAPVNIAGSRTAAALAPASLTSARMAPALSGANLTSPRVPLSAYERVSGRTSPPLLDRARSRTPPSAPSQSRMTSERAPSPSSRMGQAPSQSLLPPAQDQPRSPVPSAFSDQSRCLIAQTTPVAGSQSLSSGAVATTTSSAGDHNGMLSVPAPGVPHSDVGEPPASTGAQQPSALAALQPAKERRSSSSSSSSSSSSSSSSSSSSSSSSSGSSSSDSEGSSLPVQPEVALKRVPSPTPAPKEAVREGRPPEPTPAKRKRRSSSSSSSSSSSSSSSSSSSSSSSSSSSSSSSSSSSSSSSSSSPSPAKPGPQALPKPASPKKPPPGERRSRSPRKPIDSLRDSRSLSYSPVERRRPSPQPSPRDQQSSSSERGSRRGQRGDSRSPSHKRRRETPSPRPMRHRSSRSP
UniProt O15269: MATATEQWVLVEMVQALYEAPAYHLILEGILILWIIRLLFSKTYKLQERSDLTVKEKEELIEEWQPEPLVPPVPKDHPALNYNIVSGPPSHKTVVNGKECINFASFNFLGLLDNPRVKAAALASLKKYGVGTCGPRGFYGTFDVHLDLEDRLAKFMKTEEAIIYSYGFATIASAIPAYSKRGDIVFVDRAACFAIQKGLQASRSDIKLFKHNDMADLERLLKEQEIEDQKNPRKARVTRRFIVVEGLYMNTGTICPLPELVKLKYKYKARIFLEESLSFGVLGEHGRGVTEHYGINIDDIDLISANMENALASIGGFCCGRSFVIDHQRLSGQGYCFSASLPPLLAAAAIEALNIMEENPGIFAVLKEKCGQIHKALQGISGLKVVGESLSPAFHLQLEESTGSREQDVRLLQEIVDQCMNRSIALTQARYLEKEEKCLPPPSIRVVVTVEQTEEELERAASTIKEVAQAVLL
UniProt Q13243: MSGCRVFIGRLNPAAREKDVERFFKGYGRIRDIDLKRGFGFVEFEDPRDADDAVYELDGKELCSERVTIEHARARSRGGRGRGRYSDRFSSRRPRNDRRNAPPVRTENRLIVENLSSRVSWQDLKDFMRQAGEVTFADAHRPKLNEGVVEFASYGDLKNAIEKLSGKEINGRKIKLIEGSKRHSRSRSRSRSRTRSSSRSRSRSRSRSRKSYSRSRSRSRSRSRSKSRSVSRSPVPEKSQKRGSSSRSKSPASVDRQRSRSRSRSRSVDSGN
UniProt Q9NUQ6: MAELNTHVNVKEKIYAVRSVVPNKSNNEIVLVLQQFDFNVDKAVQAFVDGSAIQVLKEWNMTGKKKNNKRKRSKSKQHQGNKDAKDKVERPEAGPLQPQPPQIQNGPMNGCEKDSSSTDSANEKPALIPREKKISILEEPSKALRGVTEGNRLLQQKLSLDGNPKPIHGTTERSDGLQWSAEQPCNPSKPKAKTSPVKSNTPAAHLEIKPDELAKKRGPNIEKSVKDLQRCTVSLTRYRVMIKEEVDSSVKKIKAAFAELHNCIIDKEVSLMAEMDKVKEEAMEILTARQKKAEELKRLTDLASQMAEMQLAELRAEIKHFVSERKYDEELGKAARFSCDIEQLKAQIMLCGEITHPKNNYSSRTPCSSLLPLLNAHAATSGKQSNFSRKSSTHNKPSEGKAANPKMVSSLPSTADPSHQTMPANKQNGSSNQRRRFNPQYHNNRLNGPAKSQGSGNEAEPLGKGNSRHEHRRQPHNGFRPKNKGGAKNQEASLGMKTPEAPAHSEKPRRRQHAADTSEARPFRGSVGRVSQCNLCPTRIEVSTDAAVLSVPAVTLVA
UniProt Q9P289: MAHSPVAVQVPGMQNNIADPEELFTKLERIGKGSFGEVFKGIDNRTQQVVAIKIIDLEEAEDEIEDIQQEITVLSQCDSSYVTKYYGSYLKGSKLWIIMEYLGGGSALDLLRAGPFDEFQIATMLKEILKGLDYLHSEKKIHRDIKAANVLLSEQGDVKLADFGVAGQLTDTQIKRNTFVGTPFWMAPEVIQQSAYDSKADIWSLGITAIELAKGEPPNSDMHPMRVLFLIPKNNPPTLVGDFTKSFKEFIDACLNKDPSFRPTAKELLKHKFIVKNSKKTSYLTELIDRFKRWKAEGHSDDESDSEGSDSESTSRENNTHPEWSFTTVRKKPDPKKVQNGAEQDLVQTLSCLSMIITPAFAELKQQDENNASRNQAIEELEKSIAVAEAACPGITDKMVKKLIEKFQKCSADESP
UniProt Q8N0Z3: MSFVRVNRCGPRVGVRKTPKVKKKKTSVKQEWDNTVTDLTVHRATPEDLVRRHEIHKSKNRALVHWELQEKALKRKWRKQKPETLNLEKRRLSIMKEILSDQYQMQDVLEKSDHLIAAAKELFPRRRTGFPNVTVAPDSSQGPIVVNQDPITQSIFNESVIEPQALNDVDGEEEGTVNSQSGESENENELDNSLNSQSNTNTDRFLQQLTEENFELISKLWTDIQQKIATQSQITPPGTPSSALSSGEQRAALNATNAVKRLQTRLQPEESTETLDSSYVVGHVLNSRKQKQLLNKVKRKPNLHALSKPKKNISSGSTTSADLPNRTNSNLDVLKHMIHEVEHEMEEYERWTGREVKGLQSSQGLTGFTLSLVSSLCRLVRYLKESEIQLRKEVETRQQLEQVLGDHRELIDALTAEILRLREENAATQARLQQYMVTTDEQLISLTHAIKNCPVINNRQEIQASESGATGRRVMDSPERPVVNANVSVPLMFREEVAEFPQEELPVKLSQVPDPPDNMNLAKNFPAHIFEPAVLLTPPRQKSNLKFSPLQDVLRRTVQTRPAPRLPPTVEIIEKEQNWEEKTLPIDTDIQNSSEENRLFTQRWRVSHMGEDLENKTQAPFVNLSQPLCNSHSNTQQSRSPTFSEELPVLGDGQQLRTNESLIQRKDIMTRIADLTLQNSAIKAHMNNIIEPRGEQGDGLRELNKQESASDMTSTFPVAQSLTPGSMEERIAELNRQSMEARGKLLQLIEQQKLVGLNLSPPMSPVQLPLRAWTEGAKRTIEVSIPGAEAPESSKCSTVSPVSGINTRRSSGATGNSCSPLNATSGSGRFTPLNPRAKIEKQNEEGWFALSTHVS

Compound in the first experiment: ClCC(=O)N[C@@H]1CCCc2ccccc12
Nature of the experiment: log2 mean competition ratio of IA-DTB cysteine labelling (DMSO/compound) (log2 ratio); higher = stronger cysteine engagement by compound. The settings on record: 50 µM; treatment time: 4 h; cell line lysate: HEK293T. How it is done:
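IA-DTB competitive cysteine chemoproteomics in HEK293T RIPA lysate. Lysates were treated with compound 29 or 30 at 50 or 200 µM for 4 h, then IA-DTB (500 µM, 1 h), trypsin-digested, NeutrAvidin-enriched and analysed by diaPASEF. Competition ratio = intensity DMSO / intensity compound (n=4 treated, n=64 DMSO); binding: mean log2 CR ≥ 1 and p ≤ 0.05 plus QC filters. Target is the cysteine site.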
For the target SPINDOC C12 (UniProt Q9BUA3), the “log2 mean competition ratio” value was found to be 0.147.

In the case of STXBP3 C557 (UniProt O00186), the “log2 mean competition ratio” value was -0.0859.

Consider STAG2 C711 (UniProt Q8N3U4), for which the “log2 mean competition ratio” value worked out at 0.341.

Regarding STIL C134 (UniProt Q15468), the “log2 mean competition ratio” value amounted to 0.047.

As to ST3GAL6 C118 (UniProt Q9Y274), the “log2 mean competition ratio” value is -0.0924.

With STRN C765 (UniProt O43815), the “log2 mean competition ratio” value was 0.326.

For the target SUMF2 C290 (UniProt Q8NBJ7), the “log2 mean competition ratio” value was -0.0567.

On to SRRM2 C1480 (UniProt Q9UQ35), for which the “log2 mean competition ratio” value is -0.13.

As to SYNE1 C8703 (UniProt Q8NF91), the “log2 mean competition ratio” value was 0.19.

SRBD1 C762 (UniProt Q8N5C6): the “log2 mean competition ratio” value came to 0.277.

Consider SPTLC1 C192 (UniProt O15269), for which the “log2 mean competition ratio” value is 0.111.

In the case of SRP68 C562 (UniProt Q9UHB9), the “log2 mean competition ratio” value is -0.136.

In the case of SYNE2 C5348 (UniProt Q8WXH0), the “log2 mean competition ratio” value stood at 0.111.

As for STIP1 C370, the “log2 mean competition ratio” value is -0.219.

Turning to SRSF5 C63 (UniProt Q13243), the “log2 mean competition ratio” value was -0.225.

As for SPTBN2 C1966 (UniProt O15020), the “log2 mean competition ratio” value came to 0.232.

As to SPATS2L C185 (UniProt Q9NUQ6), the “log2 mean competition ratio” value turned out to be 0.0551.

Regarding STK26 C392 (UniProt Q9P289), the “log2 mean competition ratio” value is -0.244.

For SPICE1 C453 (UniProt Q8N0Z3), the “log2 mean competition ratio” value is -0.0314.

With STRN C665 (UniProt O43815), the “log2 mean competition ratio” value was -0.646.

The experiment is the same for the next values; noted with them: 200 µM; treatment time: 4 h; cell line lysate: HEK293T.
SPINDOC C12 (UniProt Q9BUA3): the “log2 mean competition ratio” value was -0.306.

STXBP3 C557 (UniProt O00186): the “log2 mean competition ratio” value is -0.117.

Regarding STAG2 C711 (UniProt Q8N3U4), the “log2 mean competition ratio” value is 0.0226.

For STIL C134 (UniProt Q15468), the “log2 mean competition ratio” value was 0.25.

As to ST3GAL6 C118 (UniProt Q9Y274), the “log2 mean competition ratio” value is 0.00488.

In the case of STRN C765 (UniProt O43815), the “log2 mean competition ratio” value was -0.0901.

In the case of SUMF2 C290 (UniProt Q8NBJ7), the “log2 mean competition ratio” value was determined as 0.278.

As to SRRM2 C1480 (UniProt Q9UQ35), the “log2 mean competition ratio” value is 0.181.

Consider SYNE1 C8703 (UniProt Q8NF91), for which the “log2 mean competition ratio” value is -0.381.

For SRBD1 C762 (UniProt Q8N5C6), the “log2 mean competition ratio” value is 0.0582.

SPTLC1 C192 (UniProt O15269): the “log2 mean competition ratio” value was -0.0182.

Turning to SRP68 C562 (UniProt Q9UHB9), the “log2 mean competition ratio” value was -0.129.

Regarding SYNE2 C5348 (UniProt Q8WXH0), the “log2 mean competition ratio” value was -0.173.

With STIP1 C370, the “log2 mean competition ratio” value was -0.174.

As to SRSF5 C63 (UniProt Q13243), the “log2 mean competition ratio” value was found to be 0.316.

Regarding SPTBN2 C1966 (UniProt O15020), the “log2 mean competition ratio” value was -0.133.

As to SPATS2L C185 (UniProt Q9NUQ6), the “log2 mean competition ratio” value is 0.0308.

Turning to STK26 C392 (UniProt Q9P289), the “log2 mean competition ratio” value was -0.158.

As for SPICE1 C453 (UniProt Q8N0Z3), the “log2 mean competition ratio” value was found to be 0.111.

Consider STRN C665 (UniProt O43815), for which the “log2 mean competition ratio” value came to 0.0064.

The values are drawn from the supplement of paper PMC11732987, “Enantioselective OTUD7B fragment discovery through chemoproteomics screening and high-throughput optimisation” (Communications Chemistry, 2025).
